No constants are given. Whether binding was seen depends on the method and setting. A result given as binding can be weak or reduced; the word gives no strength.
Assays:
[1] = molecular target: GST-RNF152 (UniProt Q8N8N0); assay: pull-down; GST-RNF152 and His-Rheb; Rheb loaded with GDP in advance; both purified
[2] = molecular target: GST-RNF152 (UniProt Q8N8N0); assay: pull-down; His-Rheb incubated with 10 ug purified GST or GST-RNF152, glutathione sepharose 4B, bound Rheb detected by Western blotting; both purified

Amino acid sequences for entries named in this document (tags omitted). A change or cut given only in a name is not applied to a line headed by its entry.
UniProt Q8N8N0: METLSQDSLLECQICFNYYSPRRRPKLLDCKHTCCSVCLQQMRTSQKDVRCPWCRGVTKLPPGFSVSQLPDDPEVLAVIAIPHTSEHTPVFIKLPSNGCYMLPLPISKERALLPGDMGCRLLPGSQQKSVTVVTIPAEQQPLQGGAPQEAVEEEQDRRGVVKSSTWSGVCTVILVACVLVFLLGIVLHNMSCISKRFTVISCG

binding [1]: binds | binding [2]: binds
Substance: His-Rheb (from UniProt Q15382 1-184)

Source: PMC6355928
